{"source": "patent US6420405B2", "about": "“Pharmaceutical composition for angiotensin II-mediated diseases” (Takeda Chemical Industries, Ltd., priority 1993, dated 2002)", "test_system": "Spontaneously Hypertensive Rats (SHR)", "experiment": "Antihypertensive activity in SHR by co-administration with a calcium antagonistic drug (Test Example 2, tail cuff)", "type": "in vivo, rat", "conditions": "MDP alone, 3 mg/kg/day, p.o.", "description": "Antihypertensive Activity in Spontaneously Hypertensive Rats (SHR) by the Co-administration with a Calcium Antagonistic Drug\nMethod: Male SHR of 20 week old were divided into six groups (five animals per group). The respective groups were administered orally with the compound 1 (0.1 or 1 mg/kg, p.o.) or MDP (3 mg/kg, p.o.) alone or with a mixture of them once a day for two weeks. On the first, 7th and 14th day at 5 hr after the administration, blood pressure of each test animal was measured by the tail cuff method under unanesthesia.", "note": "At least one structure is not confirmed: it was looked up by name or label, or the drawing left a doubt.", "data": [{"smiles": "COC(=O)C1=C(C)NC(C)=C(C(=O)OCCN2CCN(C(c3ccccc3)c3ccccc3)CC2)C1c1cccc([N+](=O)[O-])c1", "note": "(stereo not shown) [MDP, manidipine, reference compound]", "values": [{"measurement": "antihypertensive effect", "value": "apparent antihypertensive effect"}]}]}
